The text below walks through data of paper PMC12258416.

The chains behind the UniProt entries cited, without tags or fusion partners. Residues count along the entry.
UniProt O60603, residues 636-784: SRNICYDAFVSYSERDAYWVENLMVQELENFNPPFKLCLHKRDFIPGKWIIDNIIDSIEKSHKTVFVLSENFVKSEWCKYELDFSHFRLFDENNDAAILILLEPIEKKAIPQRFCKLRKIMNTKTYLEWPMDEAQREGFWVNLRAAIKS

No constants are given. Whether binding was seen depends on the method and setting.

Assay [1] has as its target T1, TIR domain of human TLR1 (TLR1TIR) (human) (UniProt Q15399).
T1 sequence: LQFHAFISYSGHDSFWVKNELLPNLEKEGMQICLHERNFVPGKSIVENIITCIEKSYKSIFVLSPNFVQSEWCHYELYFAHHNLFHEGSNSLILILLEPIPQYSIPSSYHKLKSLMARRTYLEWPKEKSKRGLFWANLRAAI
Put plainly: NMR titration; 1H,15N-HSQC of an equimolar mix of TLR1TIR and TLR2TIR (100 uM each) without Zn, compared with each protein alone; 30 mM MOPS, 64.4 mM KCl, 5.3 mM NaCl, 0.5 mM MgCl2, 1 mM TCEP, pH 7.4, 303 K; both purified.

For assay [2], the target named is T1, TIR domain of human TLR1 (TLR1TIR) (human). Put plainly: NMR titration; 1H,15N-HSQC with Zn: equimolar mix of TLR1TIR and TLR2TIR (100 uM each) titrated with 50 and 100 uM zinc; and 100 uM TLR1TIR:Zn titrated with TLR2TIR up to 1:1; both purified.

Regarding “TIR domain of TLR2 (TLR2TIR), wild type, 636-784 fragment of human TLR2 (from UniProt O60603 636-784) (domain or fragment)”, the binding entry in assay [1] and in assay [2] was “no binding (tested: 100 μM each)” throughout.
